Hit rate of the full screen: of about 580,000 compounds, about 6,100 (1.1%) were called active. Inconclusive results, whose numbers are uncertain, are shown with a selection of clear calls. Calls come from the whole dose curve; as a rule, active = well fitted inhibition curve with a large enough effect; inconclusive = small, poorly fitted or top-dose-only effect, or another doubt; inactive = no such curve, though single readings can be large or run the other way. A potency beside an inconclusive call is a rough fit, not a confirmed value.
Biological target: Polyunsaturated fatty acid lipoxygenase ALOX12 (Homo sapiens) (UniProt P18054)
Assay: Primary qHTS assay for inhibitors of human arachidonate 12S-lipoxygenase (ALOX12): Round 2
Details: purified 12hLO, xylenol orange hydroperoxide absorbance; activity change, negative = inhibition: at 108 µM (top of the series) unless noted
Summary of the method: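 Purified human 12hLO (150 nM final) in 25 mM Hepes, 0.01% Triton X-100, pH 7.0 was preincubated 15 min at room temperature with compound. Then 40 uM arachidonic acid was added, 30 min. Hydroperoxide was read by Fe-XO absorbance ratio 573/405 nm.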
% is set by controls: 0 for no effect and ±100 for the full control effect; potency is the fitted concentration of half-maximal effect.

Protein sequences, listed by entry. Tags and fused reporters are not part of them.
UniProt P18054, whole entry, looked up: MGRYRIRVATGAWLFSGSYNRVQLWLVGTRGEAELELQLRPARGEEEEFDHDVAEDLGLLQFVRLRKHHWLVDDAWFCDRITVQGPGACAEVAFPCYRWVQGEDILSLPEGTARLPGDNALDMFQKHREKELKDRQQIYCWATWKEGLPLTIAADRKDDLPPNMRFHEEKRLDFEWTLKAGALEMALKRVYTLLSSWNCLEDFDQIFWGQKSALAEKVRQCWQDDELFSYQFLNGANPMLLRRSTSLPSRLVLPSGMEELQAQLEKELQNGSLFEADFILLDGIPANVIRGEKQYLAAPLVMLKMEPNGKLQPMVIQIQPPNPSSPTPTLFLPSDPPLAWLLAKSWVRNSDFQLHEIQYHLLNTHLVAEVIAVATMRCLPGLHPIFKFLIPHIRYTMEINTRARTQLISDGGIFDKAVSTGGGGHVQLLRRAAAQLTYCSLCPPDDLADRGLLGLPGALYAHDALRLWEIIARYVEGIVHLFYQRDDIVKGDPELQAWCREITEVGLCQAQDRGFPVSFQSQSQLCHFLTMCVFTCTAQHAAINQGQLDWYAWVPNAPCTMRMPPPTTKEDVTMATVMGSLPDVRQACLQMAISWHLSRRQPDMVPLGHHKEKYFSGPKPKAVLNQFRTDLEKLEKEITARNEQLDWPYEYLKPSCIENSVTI

SMILES	Potency	activity change, negative = inhibition
Cc1cc(C(=O)N2CC(N(C)Cc3cccnc3)C2)n[nH]1	inactive	–
CCSc1nc2ccccc2n1Cc1cccc([N+](=O)[O-])c1	inactive	–
Cc1cccc(NC(=O)CSc2nnc(-c3ccco3)n2CC2CCCO2)n1 (stereo not given)	inconclusive: 31.6 µM [inhibitor, single point]	–
CC(=O)Nc1sccc1C#N	inconclusive: 50.1 µM [inhibitor, partial curve, poor fit]	–
COc1cccc([S+](=O)([O-])N2CC3ON=C(C(=O)O)C3C2)c1 (stereo not given)	–	inactive: 5.19% [at 6.33 µM]
O=[N+]([O-])/C(=C(\Sc1ccc(Cl)cc1)c1ccccc1)c1ccccc1	inconclusive: 112 µM [inhibitor, single point]	–
CCOc1ccccc1NC(=O)C(=O)NCCC1=CCCCC1	inactive	–
CC(C)n1cc2cc(C(=O)N3CCN(c4ccc(F)cc4)CC3)sc2c1	inconclusive: 15.8 µM [inhibitor, full curve, poor fit]	–
Cc1ccc(N2C(=O)CC(Sc3ccccc3C(=O)O)C2=O)c([N+](=O)[O-])c1 (stereo not given)	inconclusive: 4.47 µM [inhibitor, full curve, poor fit]	–
Cc1oc2ncn(C)c(=O)c2c1C(=O)NC(C)c1ccccc1 (stereo not given)	inactive	–
Cc1cc(C)cc(OC(=O)CS(=O)c2ccc(C(F)(F)F)cc2[N+](=O)[O-])c1 (stereo not given)	inactive	–
COc1ccc(C)cc1S(=O)(=O)[C@H]1CS(=O)(=O)C[C@@H]1NCc1ccccn1	inactive	–
COc1ccccc1/C=C/C(=O)NC(=S)Nc1ccc(S(=O)(=O)N(C)c2ccccc2)cc1	inactive	–
COc1ccc(OCC(O)CNS(=O)(=O)c2ccc(Br)cc2)cc1 (stereo not given)	inconclusive: 50.1 µM [inhibitor, partial curve, poor fit]	–
O=C(N[C@H]1C/C=C\C(c2cccc(F)c2)N(Cc2ccccc2)C(=O)C1)OCC1c2ccccc2-c2ccccc21 (stereo not given in full)	inconclusive: 44.7 µM [inhibitor, partial curve, poor fit]	–
COc1cc(C2C3=C(CCCC3=O)OC3=C2C(=O)CCC3)ccc1OCc1cccc(F)c1	inactive	–
FC(F)(F)c1ccccc1C(c1ccccc1)N1CCCNCC1 (stereo not given)	inconclusive: 1.41 µM [inhibitor, full curve]	–
Cc1ccccc1NC(=O)Cc1nnc(SCC(=O)c2ccc(C#N)cc2)n1C	inconclusive: 39.8 µM [inhibitor, partial curve, poor fit]	–
O=C(Oc1cccc2cccnc12)c1ccc(N2C(=O)C3C4CCC(C4)C3C2=O)cc1 (stereo not given)	inactive	–
CN(Cc1ccccc1)C1(C(=O)NC2CCC(O)CC2)Cc2ccccc2C1 (stereo not given)	inactive	–
O=C(CCCCCCCCCCC(=O)NCc1cccnc1)NCc1cccnc1	inactive	–
CSc1ccccc1C(=O)Nc1ccccc1Sc1ccccc1	inconclusive: 70.8 µM [inhibitor, partial curve, poor fit]	–
O=C(c1ccccc1)c1ccc(OCC(O)CNCc2ccc(F)cc2)cc1 (stereo not given)	inconclusive: 3.55 µM [inhibitor, full curve, poor fit]	–
Cc1cc2nc(-c3ccc(SCC(=O)Nc4ccc5c(c4)OCCO5)nc3)[nH]c2cc1C	inactive	–

SMILES	Potency	activity change, negative = inhibition
COc1ccc(NS(=O)(=O)c2cc([N+](=O)[O-])ccc2N/N=C\c2c(C)[nH]c3ccccc23)cc1	inactive	–
CSc1ccccc1C(=O)Nc1cccc(C(C)O)c1 (stereo not given)	inconclusive: 7.94 µM [inhibitor, partial curve, poor fit]	–
N#Cc1ccc(Nc2nc(-c3ccccc3)cs2)cc1	inconclusive: 44.7 µM [inhibitor, partial curve, poor fit]	–
O=C(CSc1nc2ccccc2[nH]1)N1CCN(c2ccccc2)CC1	inconclusive: 126 µM [inhibitor, partial curve, poor fit]	–
O=C1CN(CC(=O)Nc2c(Cl)cc(Cl)cc2Cl)CCN1	inconclusive: 39.8 µM [inhibitor, partial curve, poor fit]	–
O=C(NCc1cccc(Cl)c1)c1cc(COc2ccc3ncccc3c2)on1	inactive	–
CCC(=O)NCCC(c1ccco1)c1ccccc1OC (stereo not given)	inconclusive: 44.7 µM [inhibitor, partial curve, poor fit]	–
O=C(c1cccc(F)c1)N1CCC[C@H]1c1nc(-c2ccccc2)no1	inactive	–
CCN(CC)C1=NS(=O)(=O)c2cc([N+](=O)[O-])ccc21	inconclusive: 44.7 µM [inhibitor, partial curve, poor fit]	–
COc1ccc(-n2nc(C(=O)Nc3ccccc3OC)c3c4ccccc4n(C)c3c2=O)cc1Cl	inconclusive: 63.1 µM [inhibitor, partial curve, poor fit]	–
Cn1c(=O)c2c(ncn2CCC(=O)Nc2ccccc2C(=O)c2ccccc2)n(C)c1=O	inconclusive: 126 µM [inhibitor, single point]	–
COc1cc(/C=C/C(=O)c2ccc([N+](=O)[O-])o2)ccc1O	inactive	–
Cc1c(Cl)cccc1NC(=O)CSc1nnc2[nH]c(=O)c(C(C)(C)C)nn12	inconclusive: 50.1 µM [inhibitor, partial curve, poor fit]	–
COc1ccc(/C=C(/C(=O)Nc2ccccc2C(=O)NC(C)C)c2ccccc2)cc1	inconclusive: 112 µM [inhibitor, single point]	–
CC(C)c1nc(N2CCN(C(=O)C(=O)NCCc3ccccc3)CC2)c(C#N)c2c1CCCC2	inactive	–
COC(=O)c1cc(C(=O)Nc2cc(C)on2)cc([N+](=O)[O-])c1	inactive	–
COC(=O)c1cccc(Nc2nc(-c3ccncc3)nc3ccccc23)c1	inconclusive: 44.7 µM [inhibitor, single point]	–
CCc1noc(-c2ccn3c(CNC(=O)CCC4CCCC4)nnc3c2)n1	inconclusive: 1.58 µM [inhibitor, full curve, poor fit]	–
Cc1ccc(O)c(Cc2cc(C)cc(Cc3cc(C)ccc3O)c2O)c1	inactive	–
O=C(Cc1cccc(C(F)(F)F)c1)NC1CCN(Cc2ccccc2)CC1	inactive	–
Cc1ccc(C(=O)N2CCc3sc(C(=O)NCc4ccc(N(C)C)cc4)cc3C2)cc1	inconclusive: 79.4 µM [inhibitor, single point]	–
Cc1ccc(CNC(=O)c2ccc3c(=O)[nH]c4c(C(=O)NCC5CCCO5)sc(=S)n4c3c2)cc1 (stereo not given)	inconclusive: 17.8 µM [inhibitor, full curve, poor fit]	–
Cc1ccc2[nH]c3c(=O)n(CCN4CCOCC4)cnc3c2c1	inactive	–
Cc1nnc(SCc2ccc(Cl)cc2)c2cc3occc3n12	inconclusive: 35.5 µM [inhibitor, partial curve, poor fit]	–

SMILES	Potency	activity change, negative = inhibition
O=C1C(Nc2ccc(O)cc2)=C/C(=N/S(=O)(=O)c2cccs2)c2ccccc21	inconclusive: 50.1 µM [inhibitor, partial curve, poor fit]	–
COC(=O)N/N=C/c1ccc(-c2ccccc2Cl)o1	inconclusive: 112 µM [inhibitor, partial curve, poor fit]	–
CCOC(=O)C1(C)Oc2ccccc2C(c2ccc(OC)cc2)=C1C(=O)OC (stereo not given)	inactive	–
O=C(N/N=C/c1coc2ccccc2c1=O)c1ccccc1Br	inactive	–
CNc1cc([N+](=O)[O-])ccc1N/C=C/C(=O)c1ccc2c(c1)OCO2	inconclusive: 20 µM [inhibitor, full curve, poor fit]	–
COc1cc(C(=O)Nc2c(NCc3ccccc3)c3ccccc3oc2=O)cc(OC)c1OC	inconclusive: 0.251 µM [inhibitor, full curve, poor fit]	–
OC(COc1ccccc1)CN1CCC(Cc2ccccc2)CC1 (stereo not given)	active: 7.94 µM	–
CCOC(=O)C(c1ccccc1)C(Nc1ccc(Cl)c(Cl)c1)c1ccccn1 (stereo not given)	inactive	–
COc1ccc([N+](=O)[O-])cc1CSc1ccccn1	inconclusive: 56.2 µM [inhibitor, partial curve, poor fit]	–
CCOC(=O)C/C(=N\Nc1ncnc2ccccc12)c1ccccc1	inactive	–
Cc1ccc2c(CN3CCCCC3)cc(=O)oc2c1	inconclusive: 100 µM [inhibitor, partial curve, poor fit]	–
COc1ccc(NC(=S)NCc2ccco2)cc1	inactive	–
CC(C)(C)c1nnc(NC(=S)Nc2ccccc2)s1	inconclusive: 12.6 µM [inhibitor, partial curve, poor fit]	–
CCOC(=O)/C=C1\SCC(=O)N1CC(=O)NC(C)c1ccc(F)cc1 (stereo not given)	inconclusive: 56.2 µM [inhibitor, partial curve, poor fit]	–
COc1ccc(C(=O)N2CCC(C(=O)N3CCCCCCNC(=O)CC3)CC2)cc1F	inactive	–
O=C(NC1CCN(c2cc(-c3cccs3)[nH]n2)C1)c1cccc(Br)c1 (stereo not given)	inactive	–
CCn1c(C2CCN(Cc3ccccc3)CC2)n[nH]c1=S	inactive	–
Cn1c(-c2ccccc2)cnc1NCc1ccc(-c2ccccc2)cc1	inconclusive: 0.891 µM [inhibitor, full curve, poor fit]	–
COc1cccc(N2C(=O)NC(=NC3CCCCC3)C23CCN(CCC(C)C)C3)c1 (stereo not given)	–	inactive: 6.47% [at 6.33 µM]
CC1CCCC(N2CCN(Cc3cccc(Cl)c3)CC2)C1 (stereo not given)	inconclusive: 0.501 µM [inhibitor, full curve, poor fit]	–
O=C(O)C1Nc2c(O)cccc2C2C=CCC12 (stereo not given)	inactive	–
CC(=O)OC(C)(C)/C=C/C(=O)[C@](C)(O)C1[C@H](O)C[C@@]2(C)C3CC=C4C(C=C(O[C@@H]5O[C@H](CO)[C@@H](O)[C@H](O)[C@H]5O)C(=O)C4(C)C)[C@]3(C)C(=O)C[C@]12C (stereo not given in full)	inconclusive: 2 µM [inhibitor, full curve, poor fit]	–

Entries shown so far containing a tert-butyl group:
SMILES	Potency	activity change, negative = inhibition
Cc1c(Cl)cccc1NC(=O)CSc1nnc2[nH]c(=O)c(C(C)(C)C)nn12	inconclusive: 50.1 µM [inhibitor, partial curve, poor fit]	–
CC(C)(C)c1nnc(NC(=S)Nc2ccccc2)s1	inconclusive: 12.6 µM [inhibitor, partial curve, poor fit]	–

From PubChem BioAssay AID1671190 (National Center for Advancing Translational Sciences (NCATS), 2021)
